Data on eleven targets can be found in the supplement of paper PMC12819154, “High-throughput peptide-centric local stability assay extends protein–ligand identification to membrane proteins, tissues and bacteria” (Nature Structural & Molecular Biology, 2025).

Sequences of proteins named here, by UniProt entry; tags and fusion partners are left off. A change or cut given only in a name is not applied to a line headed by its entry.
UniProt P0AA80: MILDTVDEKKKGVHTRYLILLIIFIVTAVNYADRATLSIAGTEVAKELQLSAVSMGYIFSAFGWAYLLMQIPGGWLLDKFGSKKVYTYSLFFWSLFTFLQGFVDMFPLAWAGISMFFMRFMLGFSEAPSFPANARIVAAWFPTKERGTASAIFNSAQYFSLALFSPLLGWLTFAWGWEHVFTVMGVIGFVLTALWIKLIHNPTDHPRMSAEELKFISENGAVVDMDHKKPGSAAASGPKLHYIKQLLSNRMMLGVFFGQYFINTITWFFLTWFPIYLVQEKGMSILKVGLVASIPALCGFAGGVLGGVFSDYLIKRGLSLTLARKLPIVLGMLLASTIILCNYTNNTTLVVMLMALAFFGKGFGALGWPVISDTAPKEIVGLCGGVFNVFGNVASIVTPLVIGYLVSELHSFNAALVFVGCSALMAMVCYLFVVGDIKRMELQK
UniProt P0AAK1: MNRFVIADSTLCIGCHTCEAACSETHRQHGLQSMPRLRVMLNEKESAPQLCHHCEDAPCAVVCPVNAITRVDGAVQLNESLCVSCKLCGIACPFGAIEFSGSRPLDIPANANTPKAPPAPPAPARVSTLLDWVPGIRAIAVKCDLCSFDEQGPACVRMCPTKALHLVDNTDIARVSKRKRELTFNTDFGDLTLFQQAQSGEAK
UniProt P0AB96: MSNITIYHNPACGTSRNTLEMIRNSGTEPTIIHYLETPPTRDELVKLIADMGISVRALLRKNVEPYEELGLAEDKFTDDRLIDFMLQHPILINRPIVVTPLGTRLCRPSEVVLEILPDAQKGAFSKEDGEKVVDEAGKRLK
UniProt P0AAG8: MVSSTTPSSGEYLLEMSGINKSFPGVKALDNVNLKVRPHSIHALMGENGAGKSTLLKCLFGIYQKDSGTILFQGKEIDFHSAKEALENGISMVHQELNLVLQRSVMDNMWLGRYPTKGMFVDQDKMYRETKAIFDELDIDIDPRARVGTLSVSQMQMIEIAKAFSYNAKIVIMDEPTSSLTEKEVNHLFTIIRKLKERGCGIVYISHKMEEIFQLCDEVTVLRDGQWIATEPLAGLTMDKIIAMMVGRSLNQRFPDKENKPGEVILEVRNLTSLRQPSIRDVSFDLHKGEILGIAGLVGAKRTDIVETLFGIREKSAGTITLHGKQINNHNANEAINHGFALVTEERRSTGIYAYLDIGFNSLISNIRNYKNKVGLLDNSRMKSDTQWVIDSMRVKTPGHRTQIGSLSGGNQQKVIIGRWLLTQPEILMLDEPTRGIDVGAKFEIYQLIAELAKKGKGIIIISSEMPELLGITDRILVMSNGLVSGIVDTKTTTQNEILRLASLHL
UniProt P0A9P6: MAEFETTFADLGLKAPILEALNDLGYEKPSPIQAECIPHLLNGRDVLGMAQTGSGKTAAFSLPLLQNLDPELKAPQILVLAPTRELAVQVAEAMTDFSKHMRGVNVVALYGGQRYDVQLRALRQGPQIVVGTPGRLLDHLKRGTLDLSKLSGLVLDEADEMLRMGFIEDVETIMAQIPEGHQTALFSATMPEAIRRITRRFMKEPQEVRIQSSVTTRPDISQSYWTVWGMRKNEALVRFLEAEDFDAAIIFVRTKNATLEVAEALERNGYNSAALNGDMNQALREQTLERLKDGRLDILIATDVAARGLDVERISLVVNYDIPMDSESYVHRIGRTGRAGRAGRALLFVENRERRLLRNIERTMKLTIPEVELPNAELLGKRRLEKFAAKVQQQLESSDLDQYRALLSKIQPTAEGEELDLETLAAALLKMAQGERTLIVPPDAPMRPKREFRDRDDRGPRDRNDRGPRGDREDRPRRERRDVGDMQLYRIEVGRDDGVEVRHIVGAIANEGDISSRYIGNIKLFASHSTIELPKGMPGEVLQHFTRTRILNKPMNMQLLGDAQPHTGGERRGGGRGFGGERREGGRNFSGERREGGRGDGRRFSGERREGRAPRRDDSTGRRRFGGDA
UniProt P0ABF6: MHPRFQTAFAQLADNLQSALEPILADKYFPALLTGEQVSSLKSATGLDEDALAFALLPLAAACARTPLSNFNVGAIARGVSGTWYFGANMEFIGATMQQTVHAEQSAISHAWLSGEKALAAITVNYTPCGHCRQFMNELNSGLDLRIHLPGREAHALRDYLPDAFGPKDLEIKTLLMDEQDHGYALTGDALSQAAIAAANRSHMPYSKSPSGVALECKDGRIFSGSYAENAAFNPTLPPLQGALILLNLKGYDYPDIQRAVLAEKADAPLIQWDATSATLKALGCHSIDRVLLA
UniProt P0AB26: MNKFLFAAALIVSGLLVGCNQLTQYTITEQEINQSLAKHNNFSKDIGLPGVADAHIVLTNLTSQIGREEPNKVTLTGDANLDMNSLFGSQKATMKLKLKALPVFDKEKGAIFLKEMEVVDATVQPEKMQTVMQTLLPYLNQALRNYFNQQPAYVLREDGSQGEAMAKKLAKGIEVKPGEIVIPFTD
UniProt P0AA37: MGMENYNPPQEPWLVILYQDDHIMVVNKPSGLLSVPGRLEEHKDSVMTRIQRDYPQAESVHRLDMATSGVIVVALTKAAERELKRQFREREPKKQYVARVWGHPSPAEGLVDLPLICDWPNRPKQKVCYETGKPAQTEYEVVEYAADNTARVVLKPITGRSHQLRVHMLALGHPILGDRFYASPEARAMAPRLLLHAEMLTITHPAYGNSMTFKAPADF
UniProt P0ACW4: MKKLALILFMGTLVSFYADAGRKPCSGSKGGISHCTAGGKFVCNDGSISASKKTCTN
UniProt P0ACV2: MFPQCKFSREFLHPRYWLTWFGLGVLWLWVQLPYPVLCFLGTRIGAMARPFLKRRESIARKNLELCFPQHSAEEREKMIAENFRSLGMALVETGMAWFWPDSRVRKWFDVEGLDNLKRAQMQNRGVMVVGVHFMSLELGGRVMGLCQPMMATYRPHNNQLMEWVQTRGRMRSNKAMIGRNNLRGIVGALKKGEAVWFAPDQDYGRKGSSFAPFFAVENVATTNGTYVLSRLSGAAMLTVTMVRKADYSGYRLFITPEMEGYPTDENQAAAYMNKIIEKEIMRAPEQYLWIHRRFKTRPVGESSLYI
UniProt P0ACL0: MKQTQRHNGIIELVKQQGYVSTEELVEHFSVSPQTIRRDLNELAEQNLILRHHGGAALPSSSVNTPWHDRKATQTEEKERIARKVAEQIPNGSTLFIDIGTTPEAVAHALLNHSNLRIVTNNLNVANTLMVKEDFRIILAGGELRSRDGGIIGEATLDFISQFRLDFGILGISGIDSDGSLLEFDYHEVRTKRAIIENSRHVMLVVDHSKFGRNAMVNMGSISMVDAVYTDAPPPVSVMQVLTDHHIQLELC

This is one part of the list. Small differences around the control level are noise.

Compound in the test: CC1(C)S[C@@H]2[C@H](NC(=O)[C@H](N)c3ccccc3)C(=O)N2[C@H]1C(=O)O [ampicillin]
The test is described as follows: log2 fold change of tryptic peptide abundance, ligand vs vehicle (limited proteolysis) (log2 ratio); higher = more trypsin-susceptible (destabilized). As to conditions: ligand concentration: 10 uM; sample: E. coli crude lysate.
For “UniProt P0AA80 (peptide sequence: IVAAWFPTK, peptide start residue: 136)”, the log2 fold change is -0.26.
On to “UniProt P0AAK1 (peptide sequence: PLDIPANANTPK, peptide start residue: 104)”, for which the log2 fold change was -0.204.
As to “UniProt P0AB96 (peptide sequence: GAFSKEDGEK, peptide start residue: 122)”, the log2 fold change was 0.353.
Consider “UniProt P0AAG8 (peptide sequence: DSGTILFQGK, peptide start residue: 66)”, for which the log2 fold change was -0.352.
Turning to “UniProt P0A9P6 (peptide sequence: NATLEVAEALER, peptide start residue: 256)”, the log2 fold change was determined as 0.196.
The result for “UniProt P0ABF6 (peptide sequence: SPSGVALECK, peptide start residue: 209)” reads -0.286; that for “UniProt P0AB26 (peptide sequence: EDGSQGEAMAKK, peptide start residue: 157)”, -0.766.
For the target “UniProt P0AA37 (peptide sequence: LLLHAEMLTITHPAYGNSMTFK, peptide start residue: 193)”, the log2 fold change was determined as 0.544.
The result for “UniProt P0ACW4 (peptide sequence: FVCNDGSISASK, peptide start residue: 41)” reads 0.472; that for “UniProt P0ACV2 (peptide sequence: IGAMARPFLK, peptide start residue: 44)”, -0.148.
“UniProt P0ACL0 (peptide sequence: RAIIENSR, peptide start residue: 193)”: the log2 fold change came to 0.671.
